From publication PMC10711660, “An extended Tudor domain within Vreteno interconnects Gtsf1L and Ago3 for piRNA biogenesis in Bombyx mori” (The EMBO Journal, 2023)

B1: endogenous BmAgo3 (protein, UniProt A9ZSZ2 1-926)
chain: MADPGKGRGRSLALLQALKKSQMMDSPSQSESQSPESTPEQSTAPSTIASATPSTSGVSIGGRGRAAALMLAKMQQKPGSTTPAIFVPPSSTSAPTAGTGRGFKLLQNLQASQKASSQIASSQVTSSAQSDIKDLTEKMSETSVSAQASSVAKNKYFREVKDTPPVVKKGETGVPIEVTCNYIYLNFKENIVFEYEVKFEPDQDYKHLRFKLLNEHIEHFKEKTFDGTTLYVPHELPDAVRNLVSTNPYDQSKVNVSIIFRRTRRLSEMIHIYNVMFKCIMKDLKLIRFGRQHYNEHAAIQIPQHKLEVWPGYVTAVDEYEGGLMLTLDSTHRVLRTQTVLSLIKEVVQTEGANWKRKMTDILIGASVMTTYNKKLFRVDTIDDKMSPRSTFEKTEKGETVQISFIDYYKKNYGIEIMDWDQPLLISRDTKRMPGSDTPTDFMICLIPELCQLTGLTDDQRSNFRLMKDVATYTRITPNQRHAAFKKYIESVMKNETAKSRLAGWGLSIAPETVNLTARTLPPETLYFGDNVRVPGKPNAEWNSEVTKHSVMQAVDIMRWVLLFTQRDKQVAMDFLSTLKRNCRPMGIMVSDAELVPLANDRTDTYVLALKKCITSSVQLVVAICSTKRDDRYAAIKKVCCADNPVPSQVINARTLMNTNKIRSITQKILLQLNCKLGGTLWSISIPFKSAMIVGIDSYHDPSRRNRSVCSFVASYNQSMTLWYSKVIFQEKGQEIVDGLKCCLVDALTHYLRSNGQLPDRIIIYRDGVGDGQLKLLQQYEIPQMKICFTILGSNYQPTLTYVVVQKRINTRIFLKSRDGYDNPNPGTVVDHCITRRDWYDFLIVSQKVTQGTVTPTHYVVVYDDSGITPDQCQRLTYKMCHLYYNWPGTVRVPAPCQYAHKLSYLVGQCVHAQPSDVLVDKLFFL
B2: endogenous Siwi (protein, UniProt A8D8P8 1-899)
chain: MSEPRGRGRARGRAGRGGDGGGPAPRRPGEQAGPSQQSMPPGPRPQPPSGWGPQSSVPPVRAGVPTPTAQAGRASHRVTPTTHEHPGDIDVQQRMQKLELGPHSSGGGDASSVVGRGSRRGGGRVLPETISILRTRPEAVTSKKGTSGTPLDLLANYFTVETTPKWGLYQYHVDISPEEDSTGVRKALMRVHSKTLGGYLFDGTVLYTVNRLHPDPMELYSDRKTDNERMRILIKLTCEVSPGDYHYIQIFNIIIRKCFNLLKLQLMGRDYFDPEAKIDIPEFKLQIWPGYKTTINQYEDRLLLVTEIAHKVLRMDTVLQMLSEYAATKGNNYKKIFLEDVVGKIVMTDYNKRTYRVDDVAWNVSPKSTFKMRDENITYIEYYYKKYNLRIQDPGQPLLISRSKPREIRAGLPELIYLVPELCRQTGLSDEMRANFKLMRSLDVHTKIGPDKRIEKLNNFNRRFTSTPEVVEELATWSLKLSKELVKIKGRQLPPENIIQANNVKYPAGDTTEGWTRDMRSKHLLAIAQLNSWVVITPERQRRDTESFIDLIIKTGGGVGFRMRSPDLVVIRHDGPIEYANMCEEVIARKNPALILCVLARNYADRYEAIKKKCTVDRAVPTQVVCARNMSSKSAMSIATKVAIQINCKLGGSPWTVDIPLPSLMVVGYDVCHDTRSKEKSFGAFVATLDKQMTQYYSIVNAHTSGEELSSHMGFNIASAVKKFREKNGTYPARIFIYRDGVGDGQIPYVHSHEVAEIKKKLAEIYAGVEIKLAFIIVSKRINTRIFVQRGRSGENPRPGTVIDDVVTLPERYDFYLVSQNVREGTIAPTSYNVIEDTTGLNPDRIQRLTYKLTHLYFNCSSQVRVPSVCQYAHKLAFLAANSLHNQPHYSLNETLYFL

What was measured:
[1] = molecular target: T1, HA‐tagged BmGtsf1L (Bombyx mori); experiment: affinity purification with mass spectrometry; anti-HA immunoprecipitation from lysate of BmN4 cells transiently expressing HA-BmGtsf1L, HA-eGFP as control; dimethyl labelling, technical duplicates, threshold 2-fold enrichment
T1 sequence: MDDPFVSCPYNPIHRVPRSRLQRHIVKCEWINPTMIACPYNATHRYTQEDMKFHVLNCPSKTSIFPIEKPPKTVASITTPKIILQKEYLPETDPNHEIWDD

[2] = molecular target: T1, HA‐tagged BmGtsf1L (Bombyx mori); experiment: as above; remark: listed apart in the source

Row | Molecule | binding [1] | binding [2]
1 | endogenous BmQin (Bombyx mori (endogenous in BmN4)) | binds | –
2 | endogenous BmSpn‐E (Bombyx mori (endogenous in BmN4)) | binds | –
3 | B1 | – | binds
4 | B2 | – | binds

Read-outs that look alike come from different tables or passages of the source. No constants are given. Whether binding was seen depends on the method and setting. Binding seen in cells or lysates may run through a third protein. These calls come from enrichment with a bait or labelling near it, and not all partners need be listed. Where a sequence is shown, tags or fusion partners need not be part of it.
